Screening data

Source: PubChem BioAssay AID1224904 (Broad Institute, 2016).

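293T-iDUX4 cells carrying a ZSCAN4-driven Gaussia luciferase and a tet-on Italica luciferase control; the gap between the two luminescence signals is read after 24 h. The test concentration is not given here. Percent difference between the Gaussia and Italica channels; more negative values mean more selective suppression of the DUX4 reporter, and higher values mean less activity.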

Values are in %. How 0% and 100% were set is not given here. Common to all entries: measured here: selective DUX4 reporter inhibition. Part of the compounds only, not a random draw; the main read-out is not listed here.

| Compound | Gaussia minus Italica difference (%) |
|---|---|
| `CCN1[C@H](C(=O)NC2CCCCC2)[C@@H](CO)[C@@H]2Cn3c(ccc(-c4cccnc4)c3=O)[C@@H]21` | -16.49 |
| `C[C@H](CO)N1C[C@H](C)[C@@H](CN(C)S(=O)(=O)c2ccc(C(F)(F)F)cc2)OCc2ccccc2-c2c(n(C)c3ccccc23)C1=O` | -2.925 |
| `CN(C)CCCNC(=O)[C@H]1[C@H](CO)[C@H]2Cn3c(ccc(-c4cccnc4)c3=O)[C@@H]1N2C(=O)CC1CC1` | -17.17 |
| `CN1c2ccc(-c3ccccc3F)cc2[C@H]2[C@H](CCN2C(=O)Nc2ccc(F)cc2)[C@H]1CO` | 12.83 |
| `C[C@H]1CN([C@@H](C)CO)C(=O)c2c(c3ccccc3n2C)-c2ccccc2CO[C@H]1CN(C)S(=O)(=O)c1ccc(C#N)cc1` | 7.121 |
| `O=S(=O)(c1cccs1)N1CCCCN2[C@H](C1)[C@H](c1ccc(C3=CCCC3)cc1)[C@@H]2CO` | -19.26 |
| `CCCNC(=O)N1CC(=O)N2[C@H](C1)[C@@H](c1ccc(C#CCC3CCCC3)cc1)[C@@H]2CO` | -1.004 |
| `O=S(=O)(c1cccc(F)c1)N1CC[C@@H]2[C@@H](CO)Nc3ccc(-c4cccc(F)c4)cc3[C@@H]21` | -5.792 |
| `COc1ccccc1S(=O)(=O)N1CC[C@@H]2[C@H]1c1cc(C#CC3CCCCC3)ccc1N[C@@H]2CO` | -17.29 |
| `N#Cc1ccc(-c2ccc(C3[C@H]4CNC[C@@H]3N4S(=O)(=O)c3ccccc3F)cc2)cc1` (stereo not given in full) | -15.98 |
| `COc1ccccc1-c1ccc2n(c1=O)C[C@@H]1[C@@H](CO)[C@H](C(=O)NCc3ccccn3)[C@H]2N1C` | -11 |
| `O=C(c1cccnc1)N1CCCCN2[C@H](C1)[C@H](c1ccc(C#Cc3cccnc3)cc1)[C@@H]2CO` | -19.55 |
| `COc1ccc(-c2ccc3c(c2)[C@@H]2[C@@H](CCN2C(=O)c2ccc4c(c2)OCO4)[C@H](CO)N3C)cc1` | 9.1 |
| `O=C(C[C@H]1C[C@H]2c3cc(NC(=O)c4ccc5c(c4)OCO5)ccc3O[C@H]2[C@@H](CO)O1)NCc1ccc(Oc2ccccc2)cc1` | 8.947 |
| `COc1ccc2c3c(n(C)c2c1)[C@H](CO)N(Cc1ccc2c(c1)OCO2)CC31CCN(C(=O)c2ccc3c(c2)OCO3)CC1` | -16.31 |
| `O=C(Nc1ccc(C(F)(F)F)cc1)Nc1ccc2c(c1)[C@@H]1C[C@H](CC(=O)N3CCc4ccccc4C3)O[C@H](CO)[C@@H]1O2` | 2.783 |
| `O=C(C[C@@H]1CC[C@H]2[C@@H](COC[C@@H](O)CN2C(=O)Nc2ccc(Cl)c(Cl)c2)O1)NCc1ccc(Cl)c(Cl)c1` | -10.55 |
| `O=C(Nc1ccc(F)cc1)N1CCCCN2[C@H](CO)[C@H](c3ccc(C#Cc4ccccc4)cc3)[C@H]2C1` | -1.2 |
| `COc1ccccc1S(=O)(=O)N1C[C@@H]2N[C@H](C1)C2c1ccc(-c2ccc(F)cc2)cc1` (stereo not given in full) | -11.98 |
| `Cc1ccccc1-c1ccccc1[C@H]1[C@@H](C#N)N(C(=O)c2ccc(F)cc2)[C@H]1CO` | -3.776 |
| `CCCNC(=O)[C@@H]1[C@@H](CO)[C@@H]2Cn3c(ccc(/C=C/c4ccccc4)c3=O)[C@@H]2N1CC` | -9.784 |
| `O=C(Cc1ccccc1)N1CC(=O)N2[C@H](C1)[C@H](c1ccc(C#CCc3ccccc3)cc1)[C@@H]2CO` | -12.44 |
| `COc1ccc(S(=O)(=O)N(C)C[C@H]2OCc3ccccc3-c3c(n(C)c4ccccc34)C(=O)N([C@H](C)CO)C[C@@H]2C)cc1` | 1.345 |
| `O=C(Cc1ccccn1)N[C@H]1CC[C@H](CCn2cc(-c3ccc(F)cc3)nn2)O[C@@H]1CO` | -14.68 |
| `O=C(C[C@@H]1CC[C@@H]2[C@H](COC[C@@H](O)CN2C(=O)Nc2cc(Cl)cc(Cl)c2)O1)N1CCCCC1` | 2.948 |
| `CO[C@@H]1CN(C)C(=O)c2ccc(NC(=O)c3ccc4c(c3)OCO4)cc2OC[C@@H](C)N(Cc2ccc3c(c2)OCO3)C[C@H]1C` | -1.333 |
| `COc1ccc(-c2ccc3c(c2)[C@@H]2[C@@H](CCN2C(=O)C2CCOCC2)[C@@H](CO)N3C)cc1` | 8.958 |
| `Cc1cccc(S(=O)(=O)N2C[C@@H]3N[C@H](C2)C3c2ccc(-c3cccc(C(=O)N(C)C)c3)cc2)c1` (stereo not given in full) | -23.56 |
| `CCCNC(=O)N1CC2(CN(Cc3ccccn3)C2)c2c(n(C)c3cc(OC)ccc23)[C@@H]1CO` | -3.356 |
| `O=C(C[C@H]1CC[C@H]2[C@@H](COC[C@@H](O)CN2Cc2nccs2)O1)NCc1ccc(Oc2ccccc2)cc1` | -4.986 |
| `O=C(C[C@@H]1C[C@@H]2c3cc(NS(=O)(=O)c4ccc(F)cc4)ccc3O[C@@H]2[C@@H](CO)O1)N1CCc2ccccc2C1` | -9.937 |
| `O=C(C[C@H]1CC[C@H]2[C@@H](COC[C@H](O)CN2Cc2ccc(Oc3ccccc3)cc2)O1)Nc1nccs1` | -1.874 |
| `COc1ccc2c3c([nH]c2c1)[C@@H](CO)N(Cc1ccc(Cl)cc1)CC31CCN(Cc2nccs2)CC1` | -8.224 |
| `COc1ccc2c3c([nH]c2c1)[C@@H](CO)N(Cc1cccc(F)c1)CC31CN(C(C)=O)C1` | 9.956 |
| `COc1cccc(NC(=O)Nc2ccc3c(c2)C(=O)N(C)C[C@H](OC)[C@H](C)CN(CC2CC2)[C@@H](C)CO3)c1` | -12.61 |
| `CCCNC(=O)N1[C@H](CO)[C@H](c2ccccc2-c2ccc(C)cc2)[C@@H]1C#N` | -2.759 |
| `O=C(Cc1cccnc1)N1CC(=O)N2[C@H](C1)[C@@H](c1ccc(C#CC3CCCCC3)cc1)[C@@H]2CO` | -4.908 |
| `O=C(c1ccc(F)cc1)N1CC(=O)N2[C@H](C1)[C@@H](c1ccc(C#CCC3CCCC3)cc1)[C@@H]2CO` | -3.04 |
| `O=C(C[C@@H]1CC[C@H]2[C@@H](COC[C@H](O)CN2S(=O)(=O)c2ccc(F)cc2)O1)NCc1ccc(Cl)c(Cl)c1` | -3.422 |
| `N#Cc1cccc(-c2ccc3c(c2)[C@@H]2[C@@H](CCN2S(=O)(=O)c2ccccc2F)[C@H](CO)N3)c1` | 2.055 |
| `COc1ccc2c3c(n(C)c2c1)[C@@H](CO)N(Cc1ccccc1OC)CC31CCN(C)CC1` | -22.45 |
| `CC(C)CC#Cc1ccc([C@H]2[C@H](CO)N3C(=O)CN(C(=O)Nc4cc(F)ccc4F)C[C@@H]23)cc1` | -14.24 |
| `O=C(C[C@@H]1CC[C@H]2[C@@H](COC[C@H](O)CN2Cc2ccccc2F)O1)N[C@H]1CCN(Cc2ccccc2)C1` | -10.6 |
| `O=C(C[C@H]1CC[C@@H]2[C@H](COC[C@@H](O)CN2Cc2ccc(Cl)cc2)O1)NCc1cccc(F)c1` | -14.77 |
| `COc1ccc2c3c([nH]c2c1)[C@@H](CO)N(C(=O)C1CCCCC1)CC31CN(Cc2nccs2)C1` | -6.147 |
| `COc1ccc(-c2ccc3c(c2)[C@H]2[C@H](CCN2S(=O)(=O)c2ccc(OC)cc2)[C@H](CO)N3C)cc1` | 27.68 |
| `O=C(C1CCCC1)N1CC2(C1)[C@H](c1ccccc1)[C@@H](CO)N2Cc1ccc(Cl)cc1` | -24.09 |
| `COc1ccccc1S(=O)(=O)N1C[C@@H]2N[C@H](C1)C2c1ccc(-c2cccc(F)c2)cc1` (stereo not given in full) | -4.799 |
| `COc1ccc(C#Cc2ccc([C@@H]3[C@@H](CO)N4C(=O)CN(C(=O)c5ccncc5)C[C@@H]34)cc2)cc1` | -5.566 |
| `O=C(C[C@H]1CC[C@@H]2[C@H](COC[C@@H](O)CN2Cc2cccc(Cl)c2)O1)Nc1nccs1` | 0.4204 |
| `C[C@H](CO)N1C[C@H](C)[C@@H](CN(C)C(=O)Nc2ccc(F)cc2)OCc2ccccc2-c2c(n(C)c3ccccc23)C1=O` | 6.347 |
| `O=C(C[C@@H]1CC[C@@H]2[C@H](COC[C@H](O)CN2Cc2ccccc2F)O1)N1CCc2ccccc2C1` | 3.43 |
| `Cc1cccc(S(=O)(=O)N2CCCCN3[C@H](CO)[C@H](c4ccc(C#C[C@H](C)O)cc4)[C@H]3C2)c1` | 7.342 |
| `COc1ccc(CN2CC3(CN(C(=O)c4ccccc4)C3)c3c([nH]c4cc(OC)ccc34)[C@H]2CO)cc1` | -16.55 |
| `O=C(C[C@@H]1CC[C@H](NC(=O)c2ccc3c(c2)OCO3)[C@@H](CO)O1)NCc1ccc(Oc2ccccc2)cc1` | 0.5292 |
| `O=C(NC1CCC1)[C@H]1[C@H](CO)[C@H]2Cn3c(ccc(-c4ccccc4)c3=O)[C@H]2N1CCc1ccccc1` | -4.354 |

The first 4 entries again:

Compound,Gaussia minus Italica difference (%)
CCN1[C@H](C(=O)NC2CCCCC2)[C@@H](CO)[C@@H]2Cn3c(ccc(-c4cccnc4)c3=O)[C@@H]21,-16.49
C[C@H](CO)N1C[C@H](C)[C@@H](CN(C)S(=O)(=O)c2ccc(C(F)(F)F)cc2)OCc2ccccc2-c2c(n(C)c3ccccc23)C1=O,-2.925
CN(C)CCCNC(=O)[C@H]1[C@H](CO)[C@H]2Cn3c(ccc(-c4cccnc4)c3=O)[C@@H]1N2C(=O)CC1CC1,-17.17
CN1c2ccc(-c3ccccc3F)cc2[C@H]2[C@H](CCN2C(=O)Nc2ccc(F)cc2)[C@H]1CO,12.83